According to US20200270588A1, “GLUCOSYL TRANSFERASE POLYPEPTIDES AND METHODS OF USE” (Syngenta Participations AG, priority 2017, published 2020):

Assay: UDP luminescence plate assay of E. coli extracts, mutants of SEQ ID No: 1, 2 mM metribuzin
Format: biochemical, Zea mays
Procedure: Optionally plate assays are stopped with brief heating to 95 C before returning to ice and addition of UDP-Glo detection reagent followed by incubation at lab temperature. […] In addition a UDP standard curve is run alongside each set of plate tests.
Assays were carried out on extracts of E. coli BL21 DE3 expressing the various C-terminally his-tagged library variants of SEQ ID NO:1 at the amino acid positions listed in Table 11 as described in Example 2 except, in this case, with 2 mM metribuzin in place of herbicide V.
Thus the ratio of the metribuzin to DMSO signal as well as the increase in signal relative to the w/t bx9 is used to help distinguish those mutations most likely to offer the highest activity to metribuzin. A follow up assay monitored by, for example, LC MS is one method to distinguish these cases more quantitatively.

B1: bx9 w/t: wild type Zea mays bx9 glucosyl transferase, C-terminally his-tagged SEQ ID NO: 1 (protein)
chain: MASSRTGAGAGGRVVVFPFPFQGHFNPVMRLARALHARGLAITVFHSGALDPADYPADYRFVPVTVEADPKLLASEDIAAIVTTLNASCDAPFRARLSALLAAEGRDSVRCVFTDVSWNAVLTASSDLGVPALGMMTASAASLRDYMAYRTLIDKGYLPVKEERKEDPVPELPPYLVKDLLRVDTSDLEEFAELLARTVTAARRASGLIFNTFPLIETDTLAEIHKALSVPVFAVAPLNKLVPTATASLHGVVQADRGCLQWLDTQQPGSVLYVSFGSMAAMDPHEFVELAWGLADSKRPFVWVVRPNLIRGFESGALPDGVEDEVRGRGIVVAWAPQEEVLAHPAVGGFLTHNGWNSTVEAISEGVPMVCCPRHGDQFGNMRYVCDVWKVGTELVGEQLERGQVKAAIDRLFGTKEGEEIKERMKEFKIAAAKGIGIGVDVDETASPRTDLTDLVDLIKSF
modifications: C-terminal His tag; Zea mays
With B1 as the molecule, how does the “RATIO: metribuzin signal to DMSO signal” value (2 mM metribuzin) read?
Its value is 0.97.

And the “RATIO of the metribuzin signal to the DMSO signal” value (2 mM metribuzin vs DMSO control, same mutant)?
The value was 1.01.

What about the “metribuzin signal relative to DMSO control background signal” value (after subtracting the H24A null background) of the same molecule?
The value was 2-2.5 ×.
